Test results as given in the supplement of paper PMC10849652.
The other results are listed elsewhere or left out.

Protein sequences, listed by entry. Tags and fused reporters are not part of them. Lines headed by an entry give the natural chain unless they say otherwise; changes in a name come on top.
UniProt Q96C11: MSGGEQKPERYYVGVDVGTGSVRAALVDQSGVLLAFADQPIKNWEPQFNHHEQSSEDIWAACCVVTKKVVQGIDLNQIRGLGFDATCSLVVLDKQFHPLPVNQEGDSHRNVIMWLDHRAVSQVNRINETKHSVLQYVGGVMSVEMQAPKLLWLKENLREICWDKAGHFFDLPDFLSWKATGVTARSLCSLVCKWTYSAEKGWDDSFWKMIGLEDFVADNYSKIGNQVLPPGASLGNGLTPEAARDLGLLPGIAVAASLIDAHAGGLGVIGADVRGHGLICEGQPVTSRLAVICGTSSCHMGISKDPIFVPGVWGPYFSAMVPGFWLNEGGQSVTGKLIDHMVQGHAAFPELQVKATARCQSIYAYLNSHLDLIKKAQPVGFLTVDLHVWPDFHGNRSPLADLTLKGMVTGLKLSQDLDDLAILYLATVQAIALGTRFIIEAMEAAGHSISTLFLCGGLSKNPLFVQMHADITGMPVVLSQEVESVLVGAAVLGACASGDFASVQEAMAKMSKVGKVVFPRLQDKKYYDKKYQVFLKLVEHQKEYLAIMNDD
UniProt Q9UKA2: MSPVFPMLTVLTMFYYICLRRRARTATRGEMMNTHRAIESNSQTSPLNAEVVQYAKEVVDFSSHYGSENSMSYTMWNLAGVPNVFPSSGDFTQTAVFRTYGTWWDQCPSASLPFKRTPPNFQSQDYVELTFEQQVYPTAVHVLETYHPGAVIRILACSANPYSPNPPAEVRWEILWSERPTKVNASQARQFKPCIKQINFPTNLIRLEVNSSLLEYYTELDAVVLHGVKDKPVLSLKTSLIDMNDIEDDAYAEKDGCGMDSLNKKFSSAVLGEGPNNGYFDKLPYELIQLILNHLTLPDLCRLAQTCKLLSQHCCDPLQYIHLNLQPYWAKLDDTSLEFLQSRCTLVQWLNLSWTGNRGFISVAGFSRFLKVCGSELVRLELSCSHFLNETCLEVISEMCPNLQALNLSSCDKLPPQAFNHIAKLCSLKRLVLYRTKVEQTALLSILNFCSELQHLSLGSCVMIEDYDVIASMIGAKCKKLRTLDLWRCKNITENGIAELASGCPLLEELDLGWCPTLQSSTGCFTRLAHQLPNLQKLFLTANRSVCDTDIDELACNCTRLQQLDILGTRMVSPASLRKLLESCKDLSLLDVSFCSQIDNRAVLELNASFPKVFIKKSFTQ
UniProt Q9NVK5: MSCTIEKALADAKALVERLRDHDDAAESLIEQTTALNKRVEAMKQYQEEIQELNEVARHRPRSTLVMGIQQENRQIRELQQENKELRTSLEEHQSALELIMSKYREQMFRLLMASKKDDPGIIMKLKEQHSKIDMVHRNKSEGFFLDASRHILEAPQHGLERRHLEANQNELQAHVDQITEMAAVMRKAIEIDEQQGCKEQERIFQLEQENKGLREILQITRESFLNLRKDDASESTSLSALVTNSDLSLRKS
UniProt Q9UK97: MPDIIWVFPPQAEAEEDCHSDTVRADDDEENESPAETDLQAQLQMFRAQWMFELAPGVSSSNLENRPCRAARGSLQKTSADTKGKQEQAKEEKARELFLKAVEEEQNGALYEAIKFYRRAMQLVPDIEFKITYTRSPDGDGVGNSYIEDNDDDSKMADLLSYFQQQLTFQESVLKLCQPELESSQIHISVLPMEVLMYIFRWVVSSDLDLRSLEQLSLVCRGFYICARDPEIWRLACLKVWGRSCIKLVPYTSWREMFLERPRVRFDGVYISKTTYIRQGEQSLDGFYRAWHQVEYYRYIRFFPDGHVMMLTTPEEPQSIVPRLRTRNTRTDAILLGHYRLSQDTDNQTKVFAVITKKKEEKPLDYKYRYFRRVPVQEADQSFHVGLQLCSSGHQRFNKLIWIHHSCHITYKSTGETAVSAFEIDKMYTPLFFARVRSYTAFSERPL
UniProt Q9NYF3: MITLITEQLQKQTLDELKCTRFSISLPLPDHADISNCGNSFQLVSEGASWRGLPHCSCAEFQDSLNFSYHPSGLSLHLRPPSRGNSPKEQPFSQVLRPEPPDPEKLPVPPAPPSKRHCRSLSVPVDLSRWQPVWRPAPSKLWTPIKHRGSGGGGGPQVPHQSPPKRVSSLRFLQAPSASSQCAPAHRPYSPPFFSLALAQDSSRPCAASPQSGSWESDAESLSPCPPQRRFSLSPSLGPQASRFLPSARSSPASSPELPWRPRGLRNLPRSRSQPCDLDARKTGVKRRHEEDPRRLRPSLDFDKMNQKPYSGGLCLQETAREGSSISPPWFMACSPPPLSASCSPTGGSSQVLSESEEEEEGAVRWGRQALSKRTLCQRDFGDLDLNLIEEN
UniProt P16591: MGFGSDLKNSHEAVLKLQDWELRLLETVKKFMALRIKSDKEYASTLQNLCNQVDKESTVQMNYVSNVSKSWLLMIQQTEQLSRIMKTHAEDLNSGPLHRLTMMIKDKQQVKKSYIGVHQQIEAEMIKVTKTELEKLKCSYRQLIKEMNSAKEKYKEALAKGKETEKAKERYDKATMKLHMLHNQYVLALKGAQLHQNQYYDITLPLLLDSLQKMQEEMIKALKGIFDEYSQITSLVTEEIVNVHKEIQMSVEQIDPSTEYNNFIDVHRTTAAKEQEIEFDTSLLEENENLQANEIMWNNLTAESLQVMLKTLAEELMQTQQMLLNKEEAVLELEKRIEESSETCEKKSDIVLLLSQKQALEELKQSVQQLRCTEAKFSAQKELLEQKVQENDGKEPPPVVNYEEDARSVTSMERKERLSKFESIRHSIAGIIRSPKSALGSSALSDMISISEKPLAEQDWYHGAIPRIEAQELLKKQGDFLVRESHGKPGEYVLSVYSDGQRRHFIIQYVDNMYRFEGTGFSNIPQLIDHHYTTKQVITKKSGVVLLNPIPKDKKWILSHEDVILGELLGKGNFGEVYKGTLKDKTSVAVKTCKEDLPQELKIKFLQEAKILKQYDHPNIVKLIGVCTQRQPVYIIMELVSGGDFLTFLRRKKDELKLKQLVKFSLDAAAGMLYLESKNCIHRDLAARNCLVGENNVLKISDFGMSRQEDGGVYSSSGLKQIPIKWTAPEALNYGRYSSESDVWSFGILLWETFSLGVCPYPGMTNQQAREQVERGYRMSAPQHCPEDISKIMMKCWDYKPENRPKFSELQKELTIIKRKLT
UniProt O60258: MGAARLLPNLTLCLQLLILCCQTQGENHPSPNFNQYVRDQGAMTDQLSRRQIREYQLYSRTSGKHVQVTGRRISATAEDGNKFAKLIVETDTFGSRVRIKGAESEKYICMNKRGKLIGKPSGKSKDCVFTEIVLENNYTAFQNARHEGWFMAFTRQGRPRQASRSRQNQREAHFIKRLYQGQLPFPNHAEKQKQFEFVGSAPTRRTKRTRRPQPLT
UniProt Q96AC1: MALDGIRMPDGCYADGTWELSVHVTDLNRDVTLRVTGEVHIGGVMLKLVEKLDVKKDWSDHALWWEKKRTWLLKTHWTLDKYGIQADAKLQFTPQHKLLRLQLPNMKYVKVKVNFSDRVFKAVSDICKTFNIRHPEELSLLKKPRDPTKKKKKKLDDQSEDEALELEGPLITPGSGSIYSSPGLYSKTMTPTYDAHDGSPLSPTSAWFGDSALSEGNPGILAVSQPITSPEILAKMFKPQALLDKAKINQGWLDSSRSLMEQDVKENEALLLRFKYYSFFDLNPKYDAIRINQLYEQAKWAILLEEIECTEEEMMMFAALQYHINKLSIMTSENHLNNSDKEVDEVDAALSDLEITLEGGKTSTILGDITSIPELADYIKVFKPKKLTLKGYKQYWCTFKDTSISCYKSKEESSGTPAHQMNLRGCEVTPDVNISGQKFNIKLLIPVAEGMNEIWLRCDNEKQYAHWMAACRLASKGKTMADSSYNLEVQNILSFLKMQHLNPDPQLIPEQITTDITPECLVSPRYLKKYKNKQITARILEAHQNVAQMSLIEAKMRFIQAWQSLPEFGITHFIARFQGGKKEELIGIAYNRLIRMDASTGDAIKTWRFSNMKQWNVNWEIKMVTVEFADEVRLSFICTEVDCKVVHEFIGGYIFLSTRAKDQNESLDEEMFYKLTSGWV
UniProt Q8TF40: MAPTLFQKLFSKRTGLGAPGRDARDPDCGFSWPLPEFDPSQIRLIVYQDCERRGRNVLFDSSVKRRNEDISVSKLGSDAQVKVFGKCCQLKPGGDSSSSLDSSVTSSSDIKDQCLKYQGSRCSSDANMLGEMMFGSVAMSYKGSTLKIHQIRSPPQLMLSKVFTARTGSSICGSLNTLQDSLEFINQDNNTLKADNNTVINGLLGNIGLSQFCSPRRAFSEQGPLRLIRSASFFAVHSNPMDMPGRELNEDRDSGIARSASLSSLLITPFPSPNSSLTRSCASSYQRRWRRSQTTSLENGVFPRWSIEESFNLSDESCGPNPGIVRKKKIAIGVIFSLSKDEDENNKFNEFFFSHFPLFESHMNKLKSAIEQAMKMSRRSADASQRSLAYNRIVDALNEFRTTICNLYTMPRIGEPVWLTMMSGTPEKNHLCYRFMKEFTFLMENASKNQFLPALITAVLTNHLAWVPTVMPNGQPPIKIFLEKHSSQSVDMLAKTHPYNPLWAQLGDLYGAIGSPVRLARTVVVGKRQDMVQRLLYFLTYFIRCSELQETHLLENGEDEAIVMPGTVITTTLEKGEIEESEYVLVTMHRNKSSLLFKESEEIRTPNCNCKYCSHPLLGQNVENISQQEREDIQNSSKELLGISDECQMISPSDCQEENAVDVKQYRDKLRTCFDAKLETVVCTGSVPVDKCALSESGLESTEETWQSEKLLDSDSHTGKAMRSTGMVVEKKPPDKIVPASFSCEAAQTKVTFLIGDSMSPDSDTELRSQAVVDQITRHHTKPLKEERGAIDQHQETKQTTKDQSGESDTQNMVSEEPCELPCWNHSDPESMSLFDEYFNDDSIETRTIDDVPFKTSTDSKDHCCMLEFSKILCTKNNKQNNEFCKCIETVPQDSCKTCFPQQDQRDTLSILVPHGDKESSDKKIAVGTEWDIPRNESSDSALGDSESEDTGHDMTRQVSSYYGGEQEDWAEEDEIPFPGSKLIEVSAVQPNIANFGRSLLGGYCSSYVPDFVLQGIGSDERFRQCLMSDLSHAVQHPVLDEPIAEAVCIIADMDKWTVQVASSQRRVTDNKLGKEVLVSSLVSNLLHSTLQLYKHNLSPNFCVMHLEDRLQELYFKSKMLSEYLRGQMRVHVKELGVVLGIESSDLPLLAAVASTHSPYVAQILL
UniProt Q8WU58: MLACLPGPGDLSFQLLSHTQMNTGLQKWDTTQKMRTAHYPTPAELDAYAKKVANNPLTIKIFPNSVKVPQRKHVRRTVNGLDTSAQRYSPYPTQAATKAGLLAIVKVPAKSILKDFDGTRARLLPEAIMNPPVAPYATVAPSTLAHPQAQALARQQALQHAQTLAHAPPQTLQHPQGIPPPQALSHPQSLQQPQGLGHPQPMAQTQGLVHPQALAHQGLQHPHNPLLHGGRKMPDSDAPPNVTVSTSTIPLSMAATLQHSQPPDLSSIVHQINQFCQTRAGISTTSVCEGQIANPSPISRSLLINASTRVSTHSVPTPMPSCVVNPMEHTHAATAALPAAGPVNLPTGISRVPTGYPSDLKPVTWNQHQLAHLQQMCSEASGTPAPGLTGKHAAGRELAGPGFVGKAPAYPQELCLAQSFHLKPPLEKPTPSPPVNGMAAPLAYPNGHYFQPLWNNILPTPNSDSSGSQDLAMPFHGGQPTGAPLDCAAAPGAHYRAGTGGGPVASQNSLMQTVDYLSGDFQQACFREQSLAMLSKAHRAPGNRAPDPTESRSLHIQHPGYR
UniProt Q8N6M3: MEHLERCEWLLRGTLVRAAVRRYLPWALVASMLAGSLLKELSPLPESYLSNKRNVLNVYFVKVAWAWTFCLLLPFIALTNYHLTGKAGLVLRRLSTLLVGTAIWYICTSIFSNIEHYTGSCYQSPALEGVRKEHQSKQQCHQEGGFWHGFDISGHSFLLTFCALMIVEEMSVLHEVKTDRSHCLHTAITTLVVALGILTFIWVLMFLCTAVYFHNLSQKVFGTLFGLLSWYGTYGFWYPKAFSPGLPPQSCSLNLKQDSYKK
UniProt Q96GI7: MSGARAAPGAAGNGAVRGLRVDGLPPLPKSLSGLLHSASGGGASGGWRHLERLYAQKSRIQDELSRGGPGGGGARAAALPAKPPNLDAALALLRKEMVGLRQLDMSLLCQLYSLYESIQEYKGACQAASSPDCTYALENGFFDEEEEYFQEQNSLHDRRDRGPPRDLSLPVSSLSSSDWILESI
UniProt Q14153: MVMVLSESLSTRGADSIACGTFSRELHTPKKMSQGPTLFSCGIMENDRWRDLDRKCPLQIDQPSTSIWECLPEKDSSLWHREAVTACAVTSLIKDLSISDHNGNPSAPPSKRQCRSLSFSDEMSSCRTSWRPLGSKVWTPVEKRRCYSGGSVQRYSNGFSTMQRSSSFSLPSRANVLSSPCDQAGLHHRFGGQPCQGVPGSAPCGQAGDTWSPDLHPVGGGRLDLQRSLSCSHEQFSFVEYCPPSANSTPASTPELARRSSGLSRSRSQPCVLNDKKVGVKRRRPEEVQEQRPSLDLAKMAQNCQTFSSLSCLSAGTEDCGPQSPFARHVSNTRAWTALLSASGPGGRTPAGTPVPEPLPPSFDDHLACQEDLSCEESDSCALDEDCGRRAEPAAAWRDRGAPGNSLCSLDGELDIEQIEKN

Compound: O=C(CCCCCCC(=O)Nc1ccccc1)NO [vorinostat]
Experiment: log2 fold change, soluble protein after heating vs DMSO (PISA); higher = thermal stabilisation; K562 cells, 10 uM, 30 min; active = over 0.2 and 3.5 SD of the protein, either way, in both replicates (recomputed)
How it was run: (§1)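 K562 cells at 2×10^6 cells/mL were treated with 10 μM compound for 30 min. Aliquots were heated for 3 min across 48°C-58°C, pooled, and extracted in PBS with 0.5% NP-40 at 4°C; soluble protein was the supernatant after 21,000xg for 90 min. Soluble protein was quantified by TMTpro 16plex LC-MS/MS with channel sums equalised, and reported as log2 fold change in thermal stability against DMSO controls, with values from duplicates.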

log2 fold change, inactive:
FGGY isoform 3 (UniProt Q96C11) -0.017
FAT2 (UniProt Q9NYQ8) 0.068
FMR1 (UniProt Q06787) -0.137
FBXL4 (UniProt Q9UKA2) 0.111
FBXO2 (UniProt Q9UK22) 0.104
FAM219B (UniProt Q5XKK7) -0.072
FGG (UniProt P02679) -0.001
FGFR1OP2 (UniProt Q9NVK5) 0.025
FBXO9 (UniProt Q9UK97) 0.109
FAM53C (UniProt Q9NYF3) 0.043
FHAD1 isoform 3 (UniProt B1AJZ9) 0.264
FER (UniProt P16591) -0.028
FGF17 (UniProt O60258) -0.191
FKBP10 (UniProt Q96AY3) 0.024
FERMT2 isoform 3 (UniProt Q96AC1) -0.226
FAM98C (UniProt Q17RN3) 0.019
FNIP1 (UniProt Q8TF40) -0.162
FBXW11 (UniProt Q9UKB1) -0.01

Compound: O=C(CCCCCCNC(=O)c1cnc(N(c2ccccc2)c2ccccc2Cl)nc1)NO [citarinostat]
Experiment: as above
How it was run: as §1

log2 fold change, inactive:
FAT2 (UniProt Q9NYQ8) -0.045
FAT3 isoform 1 (UniProt Q8TDW7) 0.043
FMR1 (UniProt Q06787) 0.101
FLT1 (UniProt P17948) -0.16
FAM222B (UniProt Q8WU58) -0.045
FBXO9 (UniProt Q9UK97) 0.157
FAM53C (UniProt Q9NYF3) 0.049
FER (UniProt P16591) -0.168
FBXL8 (UniProt Q96CD0) 0.071
FANCA (UniProt O15360) -0.066
FITM2 (UniProt Q8N6M3) 0.132
FNDC3A (UniProt Q9Y2H6) -0.141
FAM89A (UniProt Q96GI7) -0.096
FAM53B (UniProt Q14153) 0.32

Compound: O=C(O)c1ccc2c(c1)nc(Nc1cccc(Cl)c1)c1ccncc12 [silmitasertib]
Experiment: as above
How it was run: as §1

log2 fold change, inactive:
FGGY isoform 3 (UniProt Q96C11) -0.269
FAT2 (UniProt Q9NYQ8) -0.063
FAT3 isoform 1 (UniProt Q8TDW7) 0.126
FMR1 (UniProt Q06787) 0.058
FBXL4 (UniProt Q9UKA2) -0.149
FAM219B (UniProt Q5XKK7) -0.006
FAM222B (UniProt Q8WU58) 0.022
FGFR1OP2 (UniProt Q9NVK5) 0.067
FBXO9 (UniProt Q9UK97) 0.132
FITM2 (UniProt Q8N6M3) -0.042
FBXO11 isoform 5 (UniProt Q86XK2) 0.029
FAM89A (UniProt Q96GI7) 0.03
FERMT2 isoform 3 (UniProt Q96AC1) 0.133
FAM98C (UniProt Q17RN3) 0.532
FNIP1 (UniProt Q8TF40) 0.089
FAM53B (UniProt Q14153) -0.231

Compound: O=C1NC(=O)C(c2cnc3ccccn23)=C1c1cn2c3c(cc(F)cc13)CN(C(=O)N1CCCCC1)CC2
Experiment: as above
How it was run: as §1

log2 fold change, inactive:
FGGY isoform 3 (UniProt Q96C11) -0.062
FAT2 (UniProt Q9NYQ8) -0.06
FAT3 isoform 1 (UniProt Q8TDW7) -0.135
FBRSL1 (UniProt Q9HCM7) -0.036
FBXL4 (UniProt Q9UKA2) -0.604
FAM222B (UniProt Q8WU58) -0.215
FGFR1OP2 (UniProt Q9NVK5) 0.044
FBXL8 (UniProt Q96CD0) 0.057
FAM83G (UniProt A6ND36) -0.003
FBXO11 isoform 5 (UniProt Q86XK2) -0.025
FBXO33 (UniProt Q7Z6M2) -0.107
FERMT2 isoform 3 (UniProt Q96AC1) 0.018
FMR1NB (UniProt Q8N0W7) 0.417
FNIP1 (UniProt Q8TF40) 0.16
FAM53B (UniProt Q14153) -0.09

Compound: c1cc(OCCN2CCCCC2)cc(-c2n[nH]c3ccc(-c4nnc[nH]4)cc23)c1
Experiment: as above
How it was run: as §1

log2 fold change, inactive:
FAT2 (UniProt Q9NYQ8) -0.06
FAT3 isoform 1 (UniProt Q8TDW7) 0.572
FMR1 (UniProt Q06787) -0.146
FLT1 (UniProt P17948) -0.053
FAM222B (UniProt Q8WU58) 0.071
FBXO9 (UniProt Q9UK97) 0.054
FAM53C (UniProt Q9NYF3) -0.085
FER (UniProt P16591) 0.2
FBXL8 (UniProt Q96CD0) 0.048
FANCA (UniProt O15360) -0.184
FITM2 (UniProt Q8N6M3) -0.031
FNDC3A (UniProt Q9Y2H6) -0.191
FAM89A (UniProt Q96GI7) -0.242
FAM53B (UniProt Q14153) -0.111
